According to the supplement of paper PMC10849652:
This is one part of the list.

Amino acid sequences for entries named in this document (tags omitted). A change or cut given only in a name is not applied to a line headed by its entry.
UniProt P06454: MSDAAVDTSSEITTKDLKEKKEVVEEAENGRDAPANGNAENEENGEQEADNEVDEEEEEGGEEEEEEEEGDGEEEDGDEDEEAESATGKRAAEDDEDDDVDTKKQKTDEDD
UniProt Q9BT73: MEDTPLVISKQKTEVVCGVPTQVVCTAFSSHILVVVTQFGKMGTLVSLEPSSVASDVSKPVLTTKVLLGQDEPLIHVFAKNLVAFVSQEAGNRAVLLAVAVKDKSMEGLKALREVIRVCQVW
UniProt P40306: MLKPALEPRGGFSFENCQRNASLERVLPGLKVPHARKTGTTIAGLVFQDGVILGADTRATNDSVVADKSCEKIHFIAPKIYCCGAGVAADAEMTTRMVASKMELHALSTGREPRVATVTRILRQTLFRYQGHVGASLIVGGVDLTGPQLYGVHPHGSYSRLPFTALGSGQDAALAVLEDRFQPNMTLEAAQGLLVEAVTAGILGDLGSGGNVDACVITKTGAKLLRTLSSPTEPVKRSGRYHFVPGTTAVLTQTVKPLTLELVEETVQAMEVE
UniProt Q9ULZ3, whole entry, looked up: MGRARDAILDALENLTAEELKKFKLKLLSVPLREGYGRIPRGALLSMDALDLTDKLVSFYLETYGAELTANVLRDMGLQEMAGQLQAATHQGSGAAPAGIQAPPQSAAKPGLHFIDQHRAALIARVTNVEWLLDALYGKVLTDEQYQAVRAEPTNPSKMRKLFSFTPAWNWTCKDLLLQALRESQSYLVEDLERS
UniProt Q8WUK0: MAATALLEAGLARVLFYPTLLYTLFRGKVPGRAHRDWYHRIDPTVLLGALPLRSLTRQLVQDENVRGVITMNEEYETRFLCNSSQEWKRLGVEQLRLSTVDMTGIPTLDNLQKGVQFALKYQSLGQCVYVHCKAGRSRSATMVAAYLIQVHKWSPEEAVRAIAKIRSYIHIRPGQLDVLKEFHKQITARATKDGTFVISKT
UniProt P18031: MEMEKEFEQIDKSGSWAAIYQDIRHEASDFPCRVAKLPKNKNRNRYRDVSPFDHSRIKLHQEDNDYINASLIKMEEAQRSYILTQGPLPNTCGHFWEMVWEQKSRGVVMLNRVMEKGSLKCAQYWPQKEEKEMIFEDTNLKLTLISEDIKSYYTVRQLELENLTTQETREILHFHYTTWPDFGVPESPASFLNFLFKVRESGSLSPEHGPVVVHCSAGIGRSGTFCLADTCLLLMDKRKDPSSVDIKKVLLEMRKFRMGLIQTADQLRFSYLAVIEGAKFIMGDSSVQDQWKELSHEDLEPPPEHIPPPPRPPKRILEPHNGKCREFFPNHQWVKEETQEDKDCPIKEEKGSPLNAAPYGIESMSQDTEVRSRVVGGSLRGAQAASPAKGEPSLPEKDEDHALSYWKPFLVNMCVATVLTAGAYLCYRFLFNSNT
UniProt P25788: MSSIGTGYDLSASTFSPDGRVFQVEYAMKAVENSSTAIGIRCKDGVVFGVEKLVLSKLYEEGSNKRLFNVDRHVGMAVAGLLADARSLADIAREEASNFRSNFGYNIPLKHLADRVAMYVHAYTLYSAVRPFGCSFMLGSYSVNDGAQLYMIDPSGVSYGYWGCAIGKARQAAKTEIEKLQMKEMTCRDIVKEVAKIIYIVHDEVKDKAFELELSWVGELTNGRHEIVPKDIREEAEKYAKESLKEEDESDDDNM
UniProt Q92932: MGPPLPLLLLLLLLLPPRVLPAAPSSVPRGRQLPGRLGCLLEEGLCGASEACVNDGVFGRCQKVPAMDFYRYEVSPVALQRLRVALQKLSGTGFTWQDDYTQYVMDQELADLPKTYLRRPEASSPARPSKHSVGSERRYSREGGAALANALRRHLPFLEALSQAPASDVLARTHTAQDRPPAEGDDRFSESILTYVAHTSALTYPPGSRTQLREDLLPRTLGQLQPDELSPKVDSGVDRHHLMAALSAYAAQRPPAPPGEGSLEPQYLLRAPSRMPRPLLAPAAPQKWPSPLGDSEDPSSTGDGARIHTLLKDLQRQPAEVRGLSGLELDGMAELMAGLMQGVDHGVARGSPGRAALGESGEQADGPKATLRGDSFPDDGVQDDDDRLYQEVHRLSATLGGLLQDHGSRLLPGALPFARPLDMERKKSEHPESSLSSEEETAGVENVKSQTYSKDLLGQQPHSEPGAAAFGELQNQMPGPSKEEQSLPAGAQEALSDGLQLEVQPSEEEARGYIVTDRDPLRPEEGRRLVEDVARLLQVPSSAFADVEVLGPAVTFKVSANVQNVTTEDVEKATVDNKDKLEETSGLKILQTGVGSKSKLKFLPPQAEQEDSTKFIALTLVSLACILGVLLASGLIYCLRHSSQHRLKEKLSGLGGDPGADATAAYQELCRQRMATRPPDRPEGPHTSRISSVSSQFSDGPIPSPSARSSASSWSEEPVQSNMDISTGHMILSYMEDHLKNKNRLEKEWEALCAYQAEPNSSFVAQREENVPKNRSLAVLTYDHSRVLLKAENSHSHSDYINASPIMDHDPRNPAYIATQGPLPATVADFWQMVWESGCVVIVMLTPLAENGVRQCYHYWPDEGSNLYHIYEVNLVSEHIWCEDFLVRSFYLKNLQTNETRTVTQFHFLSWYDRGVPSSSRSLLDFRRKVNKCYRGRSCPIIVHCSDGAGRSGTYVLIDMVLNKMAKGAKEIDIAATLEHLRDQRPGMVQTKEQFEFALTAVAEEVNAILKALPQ
UniProt P28070, whole entry, looked up: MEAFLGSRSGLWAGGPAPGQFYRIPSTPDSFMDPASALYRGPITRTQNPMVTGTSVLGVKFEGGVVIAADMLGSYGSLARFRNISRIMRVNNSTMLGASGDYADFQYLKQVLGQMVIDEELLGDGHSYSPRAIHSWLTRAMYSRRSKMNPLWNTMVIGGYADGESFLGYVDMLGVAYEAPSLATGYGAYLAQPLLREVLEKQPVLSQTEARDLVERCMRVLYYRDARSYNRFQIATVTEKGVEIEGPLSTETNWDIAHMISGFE
UniProt O00391: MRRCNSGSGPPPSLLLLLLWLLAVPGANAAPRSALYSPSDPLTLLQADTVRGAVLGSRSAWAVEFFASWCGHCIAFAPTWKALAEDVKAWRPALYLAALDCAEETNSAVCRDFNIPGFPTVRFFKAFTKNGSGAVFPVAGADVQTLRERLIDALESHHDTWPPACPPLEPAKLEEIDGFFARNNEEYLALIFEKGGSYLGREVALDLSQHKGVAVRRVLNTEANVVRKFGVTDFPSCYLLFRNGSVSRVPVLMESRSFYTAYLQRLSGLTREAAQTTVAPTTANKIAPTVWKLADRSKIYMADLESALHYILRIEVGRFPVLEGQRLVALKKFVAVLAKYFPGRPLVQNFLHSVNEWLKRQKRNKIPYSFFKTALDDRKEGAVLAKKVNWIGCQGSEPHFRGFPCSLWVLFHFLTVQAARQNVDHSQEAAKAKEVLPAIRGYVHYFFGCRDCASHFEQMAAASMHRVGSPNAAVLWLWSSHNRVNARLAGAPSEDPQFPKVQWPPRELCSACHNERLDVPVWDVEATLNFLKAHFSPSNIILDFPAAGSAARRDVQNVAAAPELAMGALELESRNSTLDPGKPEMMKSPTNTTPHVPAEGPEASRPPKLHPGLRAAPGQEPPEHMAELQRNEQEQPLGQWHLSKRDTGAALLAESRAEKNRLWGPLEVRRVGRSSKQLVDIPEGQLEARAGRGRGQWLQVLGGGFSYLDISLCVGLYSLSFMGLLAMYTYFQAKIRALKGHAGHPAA
UniProt O95758: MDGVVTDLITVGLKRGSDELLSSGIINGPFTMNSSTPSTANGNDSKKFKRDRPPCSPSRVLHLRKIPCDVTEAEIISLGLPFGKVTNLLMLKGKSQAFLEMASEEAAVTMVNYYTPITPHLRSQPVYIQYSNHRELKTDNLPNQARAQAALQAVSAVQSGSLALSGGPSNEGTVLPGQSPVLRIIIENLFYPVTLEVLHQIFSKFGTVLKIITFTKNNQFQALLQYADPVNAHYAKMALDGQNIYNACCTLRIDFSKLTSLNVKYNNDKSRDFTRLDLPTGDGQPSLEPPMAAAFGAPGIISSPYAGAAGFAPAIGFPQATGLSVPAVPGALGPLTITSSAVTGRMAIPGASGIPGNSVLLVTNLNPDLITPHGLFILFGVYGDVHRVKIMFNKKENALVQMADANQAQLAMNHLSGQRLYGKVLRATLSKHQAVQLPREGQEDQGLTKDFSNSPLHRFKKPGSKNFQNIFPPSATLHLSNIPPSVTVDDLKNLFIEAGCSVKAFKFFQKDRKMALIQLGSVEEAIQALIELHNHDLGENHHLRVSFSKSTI
UniProt Q9UNM6: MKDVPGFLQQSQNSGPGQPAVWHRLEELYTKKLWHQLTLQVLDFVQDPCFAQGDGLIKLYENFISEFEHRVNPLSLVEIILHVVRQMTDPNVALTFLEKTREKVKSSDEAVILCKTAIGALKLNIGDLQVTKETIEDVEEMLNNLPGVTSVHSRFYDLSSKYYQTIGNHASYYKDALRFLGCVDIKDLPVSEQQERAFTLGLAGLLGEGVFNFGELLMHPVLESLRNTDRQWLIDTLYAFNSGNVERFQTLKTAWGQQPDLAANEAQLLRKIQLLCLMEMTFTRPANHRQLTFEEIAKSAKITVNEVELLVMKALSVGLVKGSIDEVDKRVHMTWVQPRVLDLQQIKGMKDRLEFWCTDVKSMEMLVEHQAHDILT
UniProt Q99460, whole entry, looked up: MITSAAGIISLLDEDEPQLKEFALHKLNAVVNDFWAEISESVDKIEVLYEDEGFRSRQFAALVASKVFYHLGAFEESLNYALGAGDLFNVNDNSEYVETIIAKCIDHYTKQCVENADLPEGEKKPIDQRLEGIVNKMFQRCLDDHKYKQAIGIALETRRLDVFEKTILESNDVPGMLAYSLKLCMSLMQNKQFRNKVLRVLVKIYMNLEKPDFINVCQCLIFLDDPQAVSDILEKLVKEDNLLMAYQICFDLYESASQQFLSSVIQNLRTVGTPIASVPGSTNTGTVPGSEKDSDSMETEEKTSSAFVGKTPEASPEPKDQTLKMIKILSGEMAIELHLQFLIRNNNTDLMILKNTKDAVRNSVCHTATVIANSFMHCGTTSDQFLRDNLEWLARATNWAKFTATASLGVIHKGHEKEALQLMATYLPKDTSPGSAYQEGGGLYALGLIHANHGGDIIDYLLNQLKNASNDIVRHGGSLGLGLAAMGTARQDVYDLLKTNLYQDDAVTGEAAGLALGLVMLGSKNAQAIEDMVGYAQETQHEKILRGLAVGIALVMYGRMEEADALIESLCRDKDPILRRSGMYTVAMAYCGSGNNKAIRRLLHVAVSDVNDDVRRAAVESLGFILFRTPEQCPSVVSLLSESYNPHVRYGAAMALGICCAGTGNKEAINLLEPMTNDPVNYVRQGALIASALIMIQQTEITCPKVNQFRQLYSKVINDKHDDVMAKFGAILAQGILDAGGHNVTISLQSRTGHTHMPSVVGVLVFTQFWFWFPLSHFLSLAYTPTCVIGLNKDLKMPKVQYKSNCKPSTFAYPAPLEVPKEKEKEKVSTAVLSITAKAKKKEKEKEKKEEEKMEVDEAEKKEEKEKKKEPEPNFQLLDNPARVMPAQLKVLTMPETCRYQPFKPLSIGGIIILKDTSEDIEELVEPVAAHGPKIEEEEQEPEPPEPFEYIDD
UniProt P28072: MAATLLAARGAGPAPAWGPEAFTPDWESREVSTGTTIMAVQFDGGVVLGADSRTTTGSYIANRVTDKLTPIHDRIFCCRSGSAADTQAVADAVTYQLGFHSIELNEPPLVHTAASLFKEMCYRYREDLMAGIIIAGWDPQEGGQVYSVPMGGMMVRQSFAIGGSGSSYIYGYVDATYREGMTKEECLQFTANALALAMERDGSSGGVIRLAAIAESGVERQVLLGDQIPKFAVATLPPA
UniProt Q12974: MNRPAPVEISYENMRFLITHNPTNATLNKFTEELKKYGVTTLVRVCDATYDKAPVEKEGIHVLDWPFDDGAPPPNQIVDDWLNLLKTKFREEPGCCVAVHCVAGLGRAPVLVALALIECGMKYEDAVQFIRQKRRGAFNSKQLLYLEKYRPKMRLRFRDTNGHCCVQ
UniProt Q96PZ0: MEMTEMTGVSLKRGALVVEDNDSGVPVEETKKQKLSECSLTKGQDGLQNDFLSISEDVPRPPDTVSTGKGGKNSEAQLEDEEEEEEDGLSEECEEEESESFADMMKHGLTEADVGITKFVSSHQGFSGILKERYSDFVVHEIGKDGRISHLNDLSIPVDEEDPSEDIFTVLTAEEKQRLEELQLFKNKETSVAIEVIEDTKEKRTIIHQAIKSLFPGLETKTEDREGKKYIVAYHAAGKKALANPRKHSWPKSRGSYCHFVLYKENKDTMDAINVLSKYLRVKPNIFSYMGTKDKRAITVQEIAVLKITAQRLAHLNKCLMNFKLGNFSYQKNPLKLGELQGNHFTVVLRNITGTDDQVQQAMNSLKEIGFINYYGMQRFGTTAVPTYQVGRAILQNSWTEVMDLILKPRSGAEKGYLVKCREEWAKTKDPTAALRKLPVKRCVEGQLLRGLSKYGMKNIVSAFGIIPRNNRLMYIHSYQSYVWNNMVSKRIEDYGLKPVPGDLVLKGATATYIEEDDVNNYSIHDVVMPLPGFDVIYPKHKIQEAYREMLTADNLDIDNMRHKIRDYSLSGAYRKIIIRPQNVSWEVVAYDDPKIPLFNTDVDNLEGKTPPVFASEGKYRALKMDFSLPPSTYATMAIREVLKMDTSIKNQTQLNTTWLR

Compound: c1cc(OCCN2CCCCC2)cc(-c2n[nH]c3ccc(-c4nnc[nH]4)cc23)c1
Test: log2 fold change, soluble protein after heating vs DMSO (PISA); higher = thermal stabilisation; K562 cells, 10 uM, 30 min; active = over 0.2 and 3.5 SD of the protein, either way, in both replicates (recomputed)
Outline: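 Thermal stability values are relative to control samples and come from duplicates. They are expressed as log2 fold changes. For measurement, K562 cells (2×10^6 cells/mL) received 10 μM compound for 30 min, and aliquots were heated for 3 min over 48°C-58°C, pooled, and extracted at 4°C in PBS with 0.5% NP-40. Soluble protein, the supernatant after 21,000xg for 90 min, was quantified by TMTpro 16plex LC-MS/MS with equalised channel sums.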

log2 fold change, inactive:
PSMD4 (UniProt Q5VWC4) -0.149
QRICH1 (UniProt Q2TAL8) 0.027
PSMD3 (UniProt O43242) -0.082
PSMA7 isoform 2 (UniProt O14818) -0.11
PYCR1 isoform 3 (UniProt P32322) 0.005
PTMA (UniProt P06454) 0.099
QPCTL (UniProt Q9NXS2) -0.052
PSMG3 (UniProt Q9BT73) -0.029
PTPN23 (UniProt Q9H3S7) -0.024
PSMB2, A0A087WVV1 0.064
PSMB10 (UniProt P40306) -0.046
PYCARD (UniProt Q9ULZ3) -0.063
PSMB7 (UniProt Q99436) -0.049
PTPMT1 (UniProt Q8WUK0) -0.082
PTPN1 (UniProt P18031) -0.05
PSMA3 (UniProt P25788) -0.056
PTPRN2 isoform 3 (UniProt Q92932) 0.179
PYURF (UniProt Q96I23) -0.03
PSMB4 (UniProt P28070) -0.014
QSOX1 (UniProt O00391) 0.049
QTRT2 isoform 4 (UniProt Q9H974) -0.004
PTBP3 isoform 4 (UniProt O95758) -0.027
QDPR (UniProt P09417) -0.052
R3HDM1 isoform 2 (UniProt Q15032) 0.106
PSMA2 (UniProt P25787) -0.015
PSMD13 (UniProt Q9UNM6) -0.108
PSMD1 (UniProt Q99460) -0.057
PSMB6 (UniProt P28072) -0.034
PTP4A2 (UniProt Q12974) -0.045
PUS7 isoform 2 (UniProt Q96PZ0) -0.079

Two records picked at random from the list so far, as already listed:
log2 fold change, inactive:
QPCTL (UniProt Q9NXS2) -0.052
PYURF (UniProt Q96I23) -0.03
